Source: publication PMC5505202
These are yes or no findings as the source states them, for the method shown. Binding seen in cells or lysates may run through a third protein. Some binding calls cover weakened binding; strength is not graded here. Where a sequence is shown, tags or fusion partners need not be part of it.

Amino acid sequences for entries named in this document (tags omitted).
UniProt Q04741: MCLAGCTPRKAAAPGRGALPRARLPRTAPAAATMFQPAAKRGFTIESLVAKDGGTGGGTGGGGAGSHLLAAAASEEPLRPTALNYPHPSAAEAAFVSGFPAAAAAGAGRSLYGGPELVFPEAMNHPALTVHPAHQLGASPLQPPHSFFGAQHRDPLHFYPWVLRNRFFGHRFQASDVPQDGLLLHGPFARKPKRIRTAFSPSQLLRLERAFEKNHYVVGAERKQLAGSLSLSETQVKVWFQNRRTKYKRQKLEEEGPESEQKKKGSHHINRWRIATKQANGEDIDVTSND

Target: T1, Myc-tagged WDR11, wild type (human) (UniProt Q9BZH6)
T1 sequence: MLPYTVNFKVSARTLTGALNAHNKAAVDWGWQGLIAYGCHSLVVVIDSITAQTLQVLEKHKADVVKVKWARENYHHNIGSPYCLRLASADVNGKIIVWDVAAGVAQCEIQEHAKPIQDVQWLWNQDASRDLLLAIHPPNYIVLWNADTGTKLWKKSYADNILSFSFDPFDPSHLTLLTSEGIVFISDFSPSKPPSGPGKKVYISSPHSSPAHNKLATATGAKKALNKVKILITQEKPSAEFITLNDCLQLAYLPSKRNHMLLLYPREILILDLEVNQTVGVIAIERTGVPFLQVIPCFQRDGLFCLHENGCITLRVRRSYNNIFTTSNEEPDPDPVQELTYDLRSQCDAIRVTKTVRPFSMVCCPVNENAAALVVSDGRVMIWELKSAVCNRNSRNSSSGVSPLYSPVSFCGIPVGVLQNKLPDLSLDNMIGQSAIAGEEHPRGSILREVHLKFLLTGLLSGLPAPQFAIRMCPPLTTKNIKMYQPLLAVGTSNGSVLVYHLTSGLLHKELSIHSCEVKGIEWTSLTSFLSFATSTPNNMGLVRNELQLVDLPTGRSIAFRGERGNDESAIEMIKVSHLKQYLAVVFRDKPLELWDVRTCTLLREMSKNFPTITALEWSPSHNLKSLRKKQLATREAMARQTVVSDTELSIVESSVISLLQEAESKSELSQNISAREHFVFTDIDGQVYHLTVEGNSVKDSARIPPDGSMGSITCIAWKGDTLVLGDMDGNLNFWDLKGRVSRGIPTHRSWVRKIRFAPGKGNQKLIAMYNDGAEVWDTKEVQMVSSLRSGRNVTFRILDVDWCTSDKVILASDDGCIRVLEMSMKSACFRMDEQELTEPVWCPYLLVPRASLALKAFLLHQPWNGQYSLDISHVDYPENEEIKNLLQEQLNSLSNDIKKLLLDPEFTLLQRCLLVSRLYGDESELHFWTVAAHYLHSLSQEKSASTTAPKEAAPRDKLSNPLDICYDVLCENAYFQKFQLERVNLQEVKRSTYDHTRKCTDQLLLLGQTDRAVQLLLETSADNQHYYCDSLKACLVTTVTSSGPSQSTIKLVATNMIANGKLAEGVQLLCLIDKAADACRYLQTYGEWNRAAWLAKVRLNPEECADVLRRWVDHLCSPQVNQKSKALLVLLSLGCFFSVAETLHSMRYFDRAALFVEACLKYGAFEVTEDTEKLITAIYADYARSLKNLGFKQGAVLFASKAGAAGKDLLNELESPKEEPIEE
Test: co-IP; Myc-WDR11 (WT or c.1306A>G) coexpressed with HA-EMX1 in HEK293T; lysis buffer 50 mM HEPES, 150 mM NaCl, 10% glycerol, 1% Nonidet P-40, 1 mM EDTA; precipitated with anti-Myc antibody and protein A/G-agarose overnight at 4°C; blot with anti-EMX1

binding: binds
Substance: hemagglutinin-tagged EMX1 (from UniProt Q04741 1-290)
